Measured values as given in paper PMC8810759.
These are yes or no findings as the source states them, for the method shown. Binding seen in cells or lysates may run through a third protein. Some entries that bind do so weakly or less than the wild type.

Molecular target: T1, Drosophila Mnat9 (microtubule-associated N-acetyltransferase) (Drosophila) (UniProt Q9V9V9)
T1 sequence: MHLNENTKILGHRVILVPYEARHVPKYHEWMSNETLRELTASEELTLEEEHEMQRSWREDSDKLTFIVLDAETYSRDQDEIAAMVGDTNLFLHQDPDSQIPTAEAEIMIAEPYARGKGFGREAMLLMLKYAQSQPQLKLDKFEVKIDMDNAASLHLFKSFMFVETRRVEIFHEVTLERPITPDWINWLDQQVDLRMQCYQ
Experiment: co-IP; Drosophila S2 cell lysate (HEPES buffer, 0.5% CHAPS, protease and phosphatase inhibitors); beads with anti-Mnat9 antibody (1:100) or control rabbit IgG, incubated with sample 2 h at 4 °C, washed at least four times; blot with anti-Mer

- binding: binds
B1: Merlin (Mer) (protein, UniProt Q24564 1-635)
chain: MSPFGSKKNRSLSVRVSTFDSELEFKLEPRASGQDLFDLVCRTIGLRESWYFGLQYVDTRSNVSWLKMEKRVRDQRVELHASNNVYVFSFYAKFFPENVSEELIQEITQHLFFLQVKQSILSMDIYCRPEASVLLASYAVHVQYGPYDYETYKDGMLAGGELLPKGVTDQYQMTPEMWEERIKTWYMDHEPMTRDEVEMEYLKIAQDLDMYGVNYFPITNKNKTKLWLGVTSVGLNIYDERDKLTPKTTFQWNEIRHVSFDDKKFTIRLVDAKVSNFIFYSQDLHINKMILDLCKGNHDLYMRRRKPDTMEIQQMKAQAKEEKQRRQIERKKFIREKKLREKAEHERYELEKSMEHLQNEMRMANDALRRSEETKELYFEKSRVNEEQMQLTECKANHFKTEMDRLRERQMKIEREKHDLEKKIRDADFYVHQLTVENDKREAETEKLRKELICAKMAEREATARLLEFLNSGRKSSTDSLLTASSVSHAANTASSMAAISTPSLITSSSTNDLETAGGAELTTHSSHYLVQGDNSSGISDDFEPKEFILTDNEMEQITNEMERNHLDYLRNSKQVQSQLQTLRSEIAPHKIEENQSNLDILSEAQIKAGENKYSTLKKLKSGSTKARVAFFEEL
